Experimental data published in patent publication US5574070A, “Substituted guanidines having high binding to the sigma receptor and the use thereof” (priority 1993, dated 1996).
For at least one compound, name, drawing or mass did not settle the structure.

Assays:
anxiety behavior of mice = assay: black:white test box (light/dark exploration) of mice; conditions: s.c.
sigma receptor = assay: [3H]DTG displacement radioligand binding assay, guinea pig brain membranes

Row | Compound | numbers of line crossings and/or rears in the light compartment (vs dark) (anxiety behavior of mice) | proportion of time spent in the lighted area (anxiety behavior of mice) | IC50 (sigma receptor; comparison compound, relatively low sigma receptor affinity) | in vitro [3H]DTG displacement activity (sigma receptor)
1 | CC12CC3CC(C)(C1)CC(NC(=N)Nc1ccccc1/C=C/c1ccccc1)(C3)C2 [Example F-114-B, N-(3,5-dimethyladamantan-1-yl)-N'-[(E)-2-phenylethenyl]phenylguanidine] | tended to remain the same except at the highest dosage | generally did not increase the proportion of time the mice spent in the larger, lighted area | 1 µM | –
2 | N=C(Nc1ccccc1)NC12CC3CC(CC(C3)C1)C2 [N-adamantyl-N'-phenylguanidine] | – | – | – | found to possess the aforesaid in vitro [^3 H]DTG displacement activity
